Experimental data as given in patent US20120315283A1, “METHODS OF PROMOTING TISSUE GROWTH AND TISSUE REGENERATION” (DANA-FARBER CANCER INSTITUTE, INC., priority 2010, published 2012).
“Also recorded” adds a separate entry of the source.

Tests used:
[1] = tested on: endothelial cells; test: Endothelial cell migration; format: cell-based
[2] = tested on: B16F10 melanoma; test: Spontaneous B16F10 metastasis after primary tumor resection; format: in vivo, mouse; conditions: 21 days of treatment post B16F10 resection, 10 mg/kg/day

O=C(NC12CC3CC(CC(C3)C1)C2)N[C@H]1CC[C@H](Oc2ccc(C(=O)O)cc2)CC1 [t-AUCB, trans-4-[4-(3-adamantan-1-yl-ureido)-cyclohexyloxy]-benzonic acid]
VEGF-mediated endothelial migration ([1]; VEGF-mediated): stimulate VEGF-mediated endothelial migration | basal endothelial migration ([1]; basal, without VEGF): no significant effects | spontaneous B16F10 axillary lymph node metastasis [2]: dramatically stimulated; also recorded: increase spontaneous B16F10 axillary lymph node metastasis | spontaneous B16F10 axillary lymph node metastasis ([2]; listed as tAUCB): spontaneous axillary lymph node metastasis
